According to publication PMC10563079 (Molecules, 2023):
No constants are given. Whether binding was seen depends on the method and setting. Some entries that bind do so weakly or less than the wild type.

Amino acid sequences for entries named in this document (tags omitted).
UniProt P19793: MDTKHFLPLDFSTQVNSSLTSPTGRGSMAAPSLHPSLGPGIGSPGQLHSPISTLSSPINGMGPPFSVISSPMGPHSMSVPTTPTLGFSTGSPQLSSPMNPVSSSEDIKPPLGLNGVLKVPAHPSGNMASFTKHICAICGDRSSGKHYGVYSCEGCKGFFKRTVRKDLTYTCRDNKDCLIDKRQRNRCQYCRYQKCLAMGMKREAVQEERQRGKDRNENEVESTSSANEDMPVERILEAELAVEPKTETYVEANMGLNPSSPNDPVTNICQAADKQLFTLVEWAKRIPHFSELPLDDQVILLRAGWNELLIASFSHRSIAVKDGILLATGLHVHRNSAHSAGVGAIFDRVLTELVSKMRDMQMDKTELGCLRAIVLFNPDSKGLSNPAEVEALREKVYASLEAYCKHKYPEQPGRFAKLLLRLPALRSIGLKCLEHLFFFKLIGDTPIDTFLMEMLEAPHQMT

Biological target: RXRα (UniProt P19793)
Assay: SPR; Biacore 8K+; PD-1 or RXRα immobilised on CM5 by amine coupling (about 1500 RU), 25 °C, HBS-EP pH 7.4; PDL1, PPARα or FXR injected in series, without and with 5 µM cyc2-1 or cyc2-3; both purified

B1: FXR (receptor, UniProt Q96RI1 1-486)
chain: MVMQFQGLENPIQISPHCSCTPSGFFMEMMSMKPAKGVLTEQVAGPLGQNLEVEPYSQYSNVQFPQVQPQISSSSYYSNLGFYPQQPEEWYSPGIYELRRMPAETLYQGETEVAEMPVTKKPRMGASAGRIKGDELCVVCGDRASGYHYNALTCEGCKGFFRRSITKNAVYKCKNGGNCVMDMYMRRKCQECRLRKCKEMGMLAECMYTGLLTEIQCKSKRLRKNVKQHADQTVNEDSEGRDLRQVTSTTKSCREKTELTPDQQTLLHFIMDSYNKQRMPQEITNKILKEEFSAEENFLILTEMATNHVQVLVEFTKKLPGFQTLDHEDQIALLKGSAVEAMFLRSAEIFNKKLPSGHSDLLEERIRNSGISDEYITPMFSFYKSIGELKMTQEEYALLTAIVILSPDRQYIKDREAVEKLQEPLLDVLQKLCKIHQPENPQHFACLLGRLTELRTFNHHHAEMLMSWRVNDHKFTPLLCEIWDVQ
**Q.** B1 was tested. Which binding did it give?
**A.** binds
